These are yes or no findings as the source states them, for the method shown.
Key:
Test in all cases: native gel or EMSA
[1] = target: M. tuberculosis CRISPR/Cas protein Csm5 (secreted, in culture filtrate) (M. tuberculosis H37Rv (endogenous in culture filtrate)) (UniProt P9WJF4)
[2] = target: T1, M. tuberculosis CRISPR/Cas protein Csm1 (secreted, in culture filtrate) (M. tuberculosis H37Rv (endogenous in culture filtrate)) (UniProt P71629)
T1 sequence: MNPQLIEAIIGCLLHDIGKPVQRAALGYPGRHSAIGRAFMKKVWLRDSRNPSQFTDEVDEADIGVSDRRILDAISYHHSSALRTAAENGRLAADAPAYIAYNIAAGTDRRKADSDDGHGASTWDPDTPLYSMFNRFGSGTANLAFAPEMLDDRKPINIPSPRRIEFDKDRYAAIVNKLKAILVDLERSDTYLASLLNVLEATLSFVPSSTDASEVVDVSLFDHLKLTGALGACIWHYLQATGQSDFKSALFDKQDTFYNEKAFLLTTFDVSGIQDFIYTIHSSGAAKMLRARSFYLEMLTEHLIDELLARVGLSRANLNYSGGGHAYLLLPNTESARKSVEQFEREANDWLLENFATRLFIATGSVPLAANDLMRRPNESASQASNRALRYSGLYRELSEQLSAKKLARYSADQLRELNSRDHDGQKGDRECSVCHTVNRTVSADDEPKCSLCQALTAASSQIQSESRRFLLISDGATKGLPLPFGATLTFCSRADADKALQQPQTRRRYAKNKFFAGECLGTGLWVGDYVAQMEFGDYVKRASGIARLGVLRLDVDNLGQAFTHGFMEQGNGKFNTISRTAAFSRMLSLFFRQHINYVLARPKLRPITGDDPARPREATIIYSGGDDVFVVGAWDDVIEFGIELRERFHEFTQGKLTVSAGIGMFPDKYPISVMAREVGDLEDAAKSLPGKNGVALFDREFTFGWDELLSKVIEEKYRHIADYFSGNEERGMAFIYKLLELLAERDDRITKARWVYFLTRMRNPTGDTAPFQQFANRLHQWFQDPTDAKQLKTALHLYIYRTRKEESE

By UniProt entry, the sequences of proteins in these tests, tags left out.
UniProt P9WJF4: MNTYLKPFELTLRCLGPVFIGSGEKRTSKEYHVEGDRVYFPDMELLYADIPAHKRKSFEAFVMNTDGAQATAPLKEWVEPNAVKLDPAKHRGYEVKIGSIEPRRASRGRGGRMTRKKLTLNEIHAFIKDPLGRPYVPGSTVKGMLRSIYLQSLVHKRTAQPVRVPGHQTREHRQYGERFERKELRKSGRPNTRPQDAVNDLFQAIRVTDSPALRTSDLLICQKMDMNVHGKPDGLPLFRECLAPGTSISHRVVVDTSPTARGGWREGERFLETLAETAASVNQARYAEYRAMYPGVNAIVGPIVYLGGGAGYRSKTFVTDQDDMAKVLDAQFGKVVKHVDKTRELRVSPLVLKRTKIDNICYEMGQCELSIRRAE
UniProt P9WPJ1: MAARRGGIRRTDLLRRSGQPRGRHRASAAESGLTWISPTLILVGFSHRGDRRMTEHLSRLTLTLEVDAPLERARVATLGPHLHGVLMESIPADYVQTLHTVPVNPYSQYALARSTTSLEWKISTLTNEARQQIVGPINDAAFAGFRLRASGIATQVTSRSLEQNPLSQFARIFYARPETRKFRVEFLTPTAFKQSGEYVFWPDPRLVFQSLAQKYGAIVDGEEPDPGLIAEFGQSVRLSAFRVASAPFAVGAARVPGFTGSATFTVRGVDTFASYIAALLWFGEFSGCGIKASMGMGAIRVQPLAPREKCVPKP

[3] = target: T2, M. tuberculosis CRISPR/Cas protein Csm2 (secreted, in culture filtrate) (M. tuberculosis H37Rv (endogenous in culture filtrate)) (UniProt P9WJG0)
T2 sequence: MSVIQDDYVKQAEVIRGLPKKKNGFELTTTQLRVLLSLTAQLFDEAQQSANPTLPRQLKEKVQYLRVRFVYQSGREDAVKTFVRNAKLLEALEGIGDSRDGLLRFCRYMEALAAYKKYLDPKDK

[4] = target: T3, M. tuberculosis CRISPR/Cas protein Csm3 (secreted, in culture filtrate) (M. tuberculosis H37Rv (endogenous in culture filtrate)) (UniProt P9WJF8)
T3 sequence: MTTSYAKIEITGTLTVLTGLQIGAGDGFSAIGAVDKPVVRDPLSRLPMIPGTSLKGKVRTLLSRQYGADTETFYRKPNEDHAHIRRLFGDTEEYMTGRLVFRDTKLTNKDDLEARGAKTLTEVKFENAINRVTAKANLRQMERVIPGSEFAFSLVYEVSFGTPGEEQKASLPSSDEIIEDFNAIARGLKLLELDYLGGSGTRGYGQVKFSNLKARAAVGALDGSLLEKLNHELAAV

Measured: binding

M. tuberculosis Cas6 (Rv2824c) (secreted, in culture filtrate) (from UniProt P9WPJ1 1-314)
no binding: all assays above

Reference: publication PMC8667911
